{"source": "PubChem BioAssay AID1053208, Peter MacCallum Cancer Centre | 2014", "screen": "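Synthetic lethal interactions between gene loss and doxorubicin in osteosarcoma cells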 (primary screen)", "cell system": "mouse osteosarcoma cells, early-passage culture from an engineered mouse model of fibroblastic bone tumour", "reagent": "siRNA pool against mouse genes, 40 nM", "duration": "about 120 h (48 h before drug, then 72 h with drug)", "conditions": "doxorubicin 100 nM for 72 h, roughly 30-40% inhibitory dose", "measurement": "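Viability read as ATP luminescence after 72 h of 100 nM doxorubicin or none, duplicate wells averaged, scaled to non-targeting siRNA, then expressed as robust z-scores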", "direction": "viability z-score with doxorubicin: higher = more viable cells under doxorubicin; viability z-score without drug: higher = more viable cells with knock-down alone", "rule for the call": "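a pool counts as active when its viability z-score with doxorubicin is -2 or below and its z-score without drug lies between -2 and 2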", "note": "In all, the deposit lists about 17,000 reagents; shown is a part drawn at random. 788 of them (4.7%) were called active. 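Calls rest on z-score classes alone; an extra cut-off of viability at most 70% of control was not applied to them.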 A number with no mark means an inactive call. Not all columns of the deposit are shown."}
{"target":"Apom","combined z-score class":"no change with or without drug","viability z-score with doxorubicin":-1.35,"viability z-score without drug":-1.18}
{"target":"Fam163a","combined z-score class":"no change with or without drug","viability z-score with doxorubicin":-1.01,"viability z-score without drug":-0.51}
{"target":"Tas1r1","combined z-score class":"no change with or without drug","viability z-score with doxorubicin":0.22,"viability z-score without drug":1.18}
{"target":"Hapln4","combined z-score class":"no change with or without drug","viability z-score with doxorubicin":1.24,"viability z-score without drug":0}
{"target":"Plaat5","combined z-score class":"low cell count with doxorubicin only (active)","viability z-score with doxorubicin":-2.7,"viability z-score without drug":0.17}
{"target":"Nup98","combined z-score class":"low cell count with and without drug","viability z-score with doxorubicin":-7.76,"viability z-score without drug":-9.61}
{"target":"Prg2","combined z-score class":"no change with or without drug","viability z-score with doxorubicin":0.22,"viability z-score without drug":-0.84}
{"target":"Crmp1","combined z-score class":"no change with or without drug","viability z-score with doxorubicin":-0.34,"viability z-score without drug":0.17}
{"target":"Golph3l","combined z-score class":"low cell count with doxorubicin only (active)","viability z-score with doxorubicin":-2.14,"viability z-score without drug":1.01}
{"target":"Tbx2","combined z-score class":"no change with or without drug","viability z-score with doxorubicin":0.45,"viability z-score without drug":0.84}
{"target":"Hnrnph2","combined z-score class":"no change with or without drug","viability z-score with doxorubicin":0,"viability z-score without drug":-0.17}
{"target":"Echs1","combined z-score class":"no change with or without drug","viability z-score with doxorubicin":-0.45,"viability z-score without drug":0.51}
{"target":"Dus4l","combined z-score class":"no change with or without drug","viability z-score with doxorubicin":-0.79,"viability z-score without drug":1.18}
{"target":"Pik3c2b","combined z-score class":"no change with or without drug","viability z-score with doxorubicin":0.9,"viability z-score without drug":0.51}
{"target":"St6galnac6","combined z-score class":"no change with or without drug","viability z-score with doxorubicin":0,"viability z-score without drug":0.17}
{"target":"Raet1b","combined z-score class":"no change with or without drug","viability z-score with doxorubicin":0.22,"viability z-score without drug":-0.67}
{"target":"4921524J17Rik","combined z-score class":"high cell count without drug only","viability z-score with doxorubicin":-1.46,"viability z-score without drug":2.7}
{"target":"Ccr1","combined z-score class":"no change with or without drug","viability z-score with doxorubicin":-0.45,"viability z-score without drug":0.17}
{"target":"Fndc3b","combined z-score class":"no change with or without drug","viability z-score with doxorubicin":1.8,"viability z-score without drug":1.18}
{"target":"Pcbp3","combined z-score class":"no change with or without drug","viability z-score with doxorubicin":-0.67,"viability z-score without drug":-0.51}
{"target":"Poldip2","combined z-score class":"no change with or without drug","viability z-score with doxorubicin":0.67,"viability z-score without drug":-0.17}
{"target":"Scel","combined z-score class":"no change with or without drug","viability z-score with doxorubicin":1.91,"viability z-score without drug":1.85}
{"target":"Ccpg1","combined z-score class":"no change with or without drug","viability z-score with doxorubicin":-0.79,"viability z-score without drug":-0.17}
{"target":"Atp6v1g3","combined z-score class":"no change with or without drug","viability z-score with doxorubicin":1.12,"viability z-score without drug":1.85}
{"target":"Txndc8","combined z-score class":"no change with or without drug","viability z-score with doxorubicin":-0.45,"viability z-score without drug":1.35}
{"target":"Gabra2","combined z-score class":"no change with or without drug","viability z-score with doxorubicin":0.67,"viability z-score without drug":0.34}
{"target":"Atp6ap1","combined z-score class":"no change with or without drug","viability z-score with doxorubicin":0.9,"viability z-score without drug":-0.51}
{"target":"Acad11","combined z-score class":"no change with or without drug","viability z-score with doxorubicin":0.45,"viability z-score without drug":0.51}
{"target":"Mcpt4","combined z-score class":"no change with or without drug","viability z-score with doxorubicin":-1.57,"viability z-score without drug":1.18}
{"target":"Kcnb1","combined z-score class":"no change with or without drug","viability z-score with doxorubicin":0.67,"viability z-score without drug":0.51}
{"target":"Cpz","combined z-score class":"no change with or without drug","viability z-score with doxorubicin":0.56,"viability z-score without drug":0.17}
{"target":"Etv3","combined z-score class":"no change with or without drug","viability z-score with doxorubicin":-0.9,"viability z-score without drug":0.17}
{"target":"Snrnp40","combined z-score class":"no change with or without drug","viability z-score with doxorubicin":0.67,"viability z-score without drug":0.34}
{"target":"Cox7a2","combined z-score class":"no change with or without drug","viability z-score with doxorubicin":-0.9,"viability z-score without drug":0.51}
{"target":"Ptpn2","combined z-score class":"high cell count with doxorubicin only","viability z-score with doxorubicin":2.02,"viability z-score without drug":-0.34}
{"target":"Acp2","combined z-score class":"no change with or without drug","viability z-score with doxorubicin":-0.11,"viability z-score without drug":-1.18}

Laid out differently: 4 of the entries above
{"target": "4921524J17Rik", "combined z-score class": "high cell count without drug only", "viability z-score with doxorubicin": -1.46, "viability z-score without drug": 2.7}
{"target": "Ccr1", "combined z-score class": "no change with or without drug", "viability z-score with doxorubicin": -0.45, "viability z-score without drug": 0.17}
{"target": "Fndc3b", "combined z-score class": "no change with or without drug", "viability z-score with doxorubicin": 1.8, "viability z-score without drug": 1.18}
{"target": "Pcbp3", "combined z-score class": "no change with or without drug", "viability z-score with doxorubicin": -0.67, "viability z-score without drug": -0.51}
